Values from PubChem BioAssay AID1159584 (Peter MacCallum Cancer Centre, 2016)
Purpose: 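Genes whose loss is lethal only together with E-cadherin loss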 (primary screen). Cell system: human MCF10A breast epithelial cells, parental and CDH1-null. Knock-down reagent: siRNA against human genes. Read-out: 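Cell viability by CellTiter-Glo ATP luminescence, each line scaled to the mean of mock wells across plates, then CDH1-null over parental ratio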. Direction: CDH1-null / parental viability ratio: higher = CDH1-null cells survive relatively better than parental.
In all, the deposit lists about 18,000 reagents; this is a random part of them. Further read-outs or replicates are left out here. The record does not give: the amount of reagent, the time to read-out.

ZNF846 (GeneID 162993) | CDH1-null / parental viability ratio: 1.73
GTF2I (GeneID 2969) | CDH1-null / parental viability ratio: 0.85
NUDCD3 (GeneID 23386) | CDH1-null / parental viability ratio: 0.74
SLC37A4 (GeneID 2542) | CDH1-null / parental viability ratio: 1
AP3B2 (GeneID 8120) | CDH1-null / parental viability ratio: 1.3
MICA (GeneID 100507436) | CDH1-null / parental viability ratio: 1
IFT140 (GeneID 9742) | CDH1-null / parental viability ratio: 1.09
ATXN7L2 (GeneID 127002) | CDH1-null / parental viability ratio: 0.95
IFNA10 (GeneID 3446) | CDH1-null / parental viability ratio: 1.09
IGSF9 (GeneID 57549) | CDH1-null / parental viability ratio: 1.03
CX3CL1 (GeneID 6376) | CDH1-null / parental viability ratio: 0.91
CMTM2 (GeneID 146225) | CDH1-null / parental viability ratio: 0.96
GABRB2 (GeneID 2561) | CDH1-null / parental viability ratio: 2
ANGEL2 (GeneID 90806) | CDH1-null / parental viability ratio: 1.08

Sorted by “CDH1-null / parental viability ratio” (low to high): 2 of the entries above.
CMTM2 (GeneID 146225) | CDH1-null / parental viability ratio: 0.96
GABRB2 (GeneID 2561) | CDH1-null / parental viability ratio: 2
